No constants are given. Whether binding was seen depends on the method and setting. Binding seen in cells or lysates may run through a third protein. Some binding calls cover weakened binding; strength is not graded here. Where a sequence is shown, tags or fusion partners need not be part of it.

The target in this experiment is T1, TOPORS (human (endogenous in HeLa)) (UniProt Q9NS56).
T1 sequence: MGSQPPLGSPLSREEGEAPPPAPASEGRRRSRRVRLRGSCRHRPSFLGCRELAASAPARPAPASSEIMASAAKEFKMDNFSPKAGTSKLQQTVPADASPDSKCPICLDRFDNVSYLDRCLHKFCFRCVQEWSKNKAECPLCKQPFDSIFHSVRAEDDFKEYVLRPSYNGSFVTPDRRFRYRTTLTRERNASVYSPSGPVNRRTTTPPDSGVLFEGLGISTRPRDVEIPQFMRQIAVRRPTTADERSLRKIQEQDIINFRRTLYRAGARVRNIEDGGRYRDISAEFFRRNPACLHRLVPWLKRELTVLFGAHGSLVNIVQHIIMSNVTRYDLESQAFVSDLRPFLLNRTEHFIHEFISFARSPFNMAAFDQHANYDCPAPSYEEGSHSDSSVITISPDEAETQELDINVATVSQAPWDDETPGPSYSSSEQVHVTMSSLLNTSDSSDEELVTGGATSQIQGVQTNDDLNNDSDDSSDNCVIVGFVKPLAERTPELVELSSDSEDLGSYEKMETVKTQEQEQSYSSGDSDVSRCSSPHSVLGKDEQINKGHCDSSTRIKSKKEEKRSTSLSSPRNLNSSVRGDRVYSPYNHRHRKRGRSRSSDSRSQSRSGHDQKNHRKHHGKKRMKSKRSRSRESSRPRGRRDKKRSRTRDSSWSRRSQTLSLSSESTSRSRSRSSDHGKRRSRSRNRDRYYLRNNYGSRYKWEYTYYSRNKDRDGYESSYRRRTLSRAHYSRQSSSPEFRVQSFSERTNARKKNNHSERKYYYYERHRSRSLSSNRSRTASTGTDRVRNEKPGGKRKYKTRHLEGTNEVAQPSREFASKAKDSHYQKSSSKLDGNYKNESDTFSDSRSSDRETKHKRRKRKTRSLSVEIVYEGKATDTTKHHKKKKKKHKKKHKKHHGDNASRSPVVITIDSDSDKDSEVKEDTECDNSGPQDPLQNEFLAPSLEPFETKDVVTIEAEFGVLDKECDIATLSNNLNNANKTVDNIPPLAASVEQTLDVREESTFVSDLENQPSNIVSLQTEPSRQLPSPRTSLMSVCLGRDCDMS
Kind of experiment: co-IP; co-immunoprecipitation of endogenous proteins from HeLa cell extracts.

B1: Prostaglandin-D2 synthase (protein, UniProt P41222 23-190)
chain: APEAQVSVQPNFQQDKFLGRWFSAGLASNSSWLREKKAALSMCKSVVAPATDGGLNLTSTFLRKNQCETRTMLLQPAGSLGSYSYRSPHWGSTYSVSVVETDYDQYALLYSQGSKGPGEDFRMATLYSRTQTPRAELKEKFTAFCKAQGFTEDTIVFLPQTDKCMTEQ
With B1, the binding entry is listed as “binds”.
